PubChem BioAssay AID652272, Drosophila RNAi Screening Center – 2013
Purpose: 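Finding fly genes that regulate Hedgehog signal transduction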 (primary screen). Cells: Drosophila clone 8 (Cl8) cells. Reagent: long dsRNA against Drosophila genes. Measured: 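Firefly light from a Hedgehog-responsive ptc promoter reporter and Renilla reference light, both read on a plate reader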. Direction: firefly Hh reporter signal: higher = more ptc reporter light; Renilla reference signal: higher = more Renilla control light. Hit rule: 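Hit when the z-score averaged over two replicates is under -2 or over +3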. Meaning of the calls: active = hit: reporter lowered or raised; inactive = not a hit.
The screen tested about 21,000 reagents; shown is a random part of those that have a named target and a result. In the full data, 503 (2.4%) were called active. 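Raw plate light values, not normalised; calls rest on replicate z-scores that were not deposited; hits include reporter decreases as well as increases.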 No sequences are given here. Not stated in the record: the amount of reagent, the time to read-out.

gene	amplicon	firefly Hh reporter signal, replicate 1	firefly Hh reporter signal, replicate 2	firefly Hh reporter signal, replicate 3	Renilla reference signal, replicate 1	Renilla reference signal, replicate 2	activity call
CG32243	DRSC08105	1.52e5	2.11e5		4269	9564	inactive
Gug (Grunge)	DRSC11179	42432	91056		5088	6100	inactive
CG12121	DRSC17816	73632	1.82e5		2386	7146	inactive
CG15705	DRSC06576	61776	43984		1788	2748	inactive
CG2278	DRSC18226	98417	3.56e5		3110	10883	inactive
alpha-Est1 (alpha-Esterase-1)	DRSC12612	91203	89955		3728	3720	inactive
CG8997	DRSC01900	90508	33042		2608	3387	inactive
rngo (rings lost)	DRSC19903	5.57e5	74946		3520	3520	inactive
unc79 (uncoordinated 79)	DRSC15746	98626	94544		4484	4166	inactive
Vps37B (Vacuolar protein sorting 37B)	DRSC12165	1.47e5	67467		5248	2576	inactive
dany (distal antenna-young)	DRSC04141	1.11e5	59466		2912	4903	inactive
CG8501	DRSC07198	75446	51748		3664	2132	inactive
Acp53C14a (Accessory gland protein 53C14a)	DRSC07224	69267	31344		1845	2013	inactive
RpL12 (Ribosomal protein L12)	DRSC04344	30278	23085		1340	3177	active
spdo (sanpodo)	DRSC13988	4.60e5	2.00e5		21580	3040	inactive
Duba (Deubiquitinating enzyme A)	DRSC10582	76573	64586		3191	3047	inactive
E(spl)m8-HLH (Enhancer of split m8, helix-loop-helix)	DRSC16654	5.63e5	1.14e5		33121	3082	inactive
Hmu (Hemomucin)	DRSC16705	80212	1.06e5		2656	3611	inactive
CG15530	DRSC15067	1.11e5	1.45e5		2993	3393	inactive
CG14304	DRSC14783	4.11e5	55154		25360	1942	inactive
enc (encore)	DRSC08716	61890	33973		1932	2149	inactive
Rrp4	DRSC04434	82265	55506		3805	2625	inactive
CG14246	DRSC14741	2.20e5	5.77e5	2.45e5	7616	3360	inactive
prd1 (pruning defect 1)	DRSC15227	1.04e5	95333		3138	2855	inactive
CG4477	DRSC10425	43181	50307	83047	4188	5864	inactive
CG11626	DRSC14336	6.10e5	93801		28850	2147	inactive
aPKC (atypical protein kinase C)	DRSC05515	1.46e5	2.63e5		3792	10538	inactive
aPKC (atypical protein kinase C)	DRSC07639	68557	43762		1328	3387	inactive
CG10175	DRSC13628	38786	1.82e5		10896	3958	inactive
CG10175	DRSC14200	8.28e5	1.61e5		44432	4322	inactive
CG15803	DRSC15121	6.02e5	85219		36554	2087	inactive
CG8237	DRSC07119	82311	50597		3085	1925	inactive
HDAC4 (Histone deacetylase 4)	DRSC19780	1.03e5	3.20e5		2537	11088	inactive
scpr-B (SCP-containing protein B)	DRSC15200	1.32e5	1.19e5		5365	4439	inactive
CG9915	DRSC20217	72402	2.13e5		2308	6514	inactive

Copied from the list.
Value for spdo (sanpodo) [DRSC13988] in “Renilla reference signal, replicate 1”: 21580
Acp53C14a (Accessory gland protein 53C14a) [DRSC07224], firefly Hh reporter signal, replicate 1: 69267
Under “firefly Hh reporter signal, replicate 2”, CG32243 [DRSC08105] is entered as 2.11e5
Value of CG9915 [DRSC20217] under “firefly Hh reporter signal, replicate 1”: 72402

The list goes on:
gene	amplicon	firefly Hh reporter signal, replicate 1	firefly Hh reporter signal, replicate 2	firefly Hh reporter signal, replicate 3	Renilla reference signal, replicate 1	Renilla reference signal, replicate 2	activity call
CG15153	DRSC02454	92759	63803		2357	5080	inactive
Pdi (Protein disulfide isomerase)	DRSC11250	77401			4724	2616	inactive
zfh2 (Zn finger homeodomain 2)	DRSC17178	79800	62531		2065	2125	inactive
CG13160	DRSC06284	82306	50528		2329	3656	inactive
CG9933	DRSC03276	87415	46053		2950	4481	inactive
Acbp6 (Acyl-CoA binding protein 6)	DRSC10217	94560	67840		8445	5156	inactive
Lamtor3 (Late endosomal/lysosomal adaptor, MAPK and MTOR activator 3)	DRSC02815	1.40e5	67392		3904	5732	inactive
Rca1 (Regulator of cyclin A1)	DRSC03407	34332	51847		2225	1825	inactive
PrBP (Prenyl-binding protein)	DRSC03189	81781	39368		2410	4840	inactive
VhaAC39-2 (Vacuolar H[+] ATPase AC39 subunit 2)	DRSC15609	6.35e5	1.45e5		30919	4853	inactive
Mdr50 (Multi drug resistance 50)	DRSC07467	1.37e5	35906		3481	468	inactive
Trf (TBP-related factor)	DRSC03462	1.12e5	48932		3059	4837	inactive
E(spl)malpha-BFM (Enhancer of split malpha, Bearded family member)	DRSC16994	4.47e5	73144		24581	2016	inactive
CG13293	DRSC09967	47141	38588		4456	3005	inactive
Clic (Chloride intracellular channel)	DRSC19364	1.29e5	1.15e5		2704	2672	inactive
CG14694	DRSC14917	56709	98536		1745	2937	inactive
CG7290	DRSC10800	89973	1.29e5		3372	3827	inactive
Obp19b (Odorant-binding protein 19b)	DRSC20536	67064	1.92e5		1968	9105	inactive
Ptpa (Phosphotyrosyl phosphatase activator)	DRSC00776	1.21e5	53088		4980	2567	inactive
Sac1 (Sac1 phosphatase)	DRSC08622	1.01e5	92368		5239	3729	inactive
CG14298	DRSC14777	4.97e5	1.13e5		24403	3156	inactive
CG6041	DRSC18396	71117	1.44e5		1939	6215	inactive
